{
  "source": "the supplement of paper PMC8728848",
  "experiment_in_all_cases": "glycan array binding signal (z-score within array); higher = stronger binding",
  "conditions_in_all_cases": "glycan notation: IUPAC condensed, linker removed",
  "key": {"[1]": {"target": "Gal6S(b1-4)Glc6S", "method_in_brief": "(§1)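 The binding signal is a Z-score computed within each array and averaged over linkers. Arrays of the same protein sequence at different concentrations or buffers were also averaged together. Data originate from 3228 arrays in the Consortium for Functional Glycomics database, kept only where the protein sequence was available.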"}, "[2]": {"target": "Gal6S(b1-4)GlcNAc", "method_in_brief": "as §1"}, "[3]": {"target": "Gal6S(b1-4)GlcNAc6S", "method_in_brief": "as §1"}, "[4]": {"target": "GalNAc(a1-3)Gal", "method_in_brief": "as §1"}, "[5]": {"target": "GalNAc(a1-3)GalNAc", "method_in_brief": "as §1"}, "[6]": {"target": "GalNAc(a1-3)GalNAc(b1-3)Gal(a1-4)Gal(b1-4)Glc", "method_in_brief": "as §1"}, "[7]": {"target": "GalNAc(a1-3)GalNAc(b1-3)Gal(a1-4)Gal(b1-4)GlcNAc", "method_in_brief": "as §1"}, "[8]": {"target": "GalNAc(b1-3)Gal", "method_in_brief": "as §1"}, "[9]": {"target": "GalNAc(b1-3)Gal(a1-4)Gal(b1-4)GlcNAc", "method_in_brief": "as §1"}, "[10]": {"target": "GalNAc(b1-3)Gal(a1-4)Gal(b1-4)GlcNAc(b1-3)Gal(b1-4)Glc", "method_in_brief": "as §1"}, "[11]": {"target": "GalNAc(b1-3)Gal(a1-6)Gal(b1-4)Glc", "method_in_brief": "as §1"}, "[12]": {"target": "GalNAc(b1-3)GalNAc", "method_in_brief": "as §1"}, "[13]": {"target": "GalNAc(b1-3)GlcNAc", "method_in_brief": "as §1"}, "[14]": {"target": "GalNAc(b1-4)Gal(b1-4)Glc", "method_in_brief": "as §1"}, "[15]": {"target": "GalNAc(b1-4)GlcNAc", "method_in_brief": "as §1"}, "[16]": {"target": "GalNAc(b1-4)GlcNAc(b1-2)Man", "method_in_brief": "as §1"}, "[17]": {"target": "GalNAc(b1-4)GlcNAc(b1-2)Man(a1-3)[GalNAc(b1-4)GlcNAc(b1-2)Man(a1-6)]Man(b1-4)GlcNAc(b1-4)GlcNAc", "method_in_brief": "as §1"}, "[18]": {"target": "GalNAc(b1-4)GlcNAc(b1-3)GalNAc(b1-4)GlcNAc", "method_in_brief": "as §1"}, "[19]": {"target": "GalNAc(b1-4)GlcNAc6S", "method_in_brief": "as §1"}, "[20]": {"target": "GalNAc(b1-6)GalNAc", "method_in_brief": "as §1"}, "[21]": {"target": "GalNAc3S(b1-4)GlcNAc", "method_in_brief": "as §1"}, "[22]": {"target": "GalNAc3S(b1-4)GlcNAc3S", "method_in_brief": "as §1"}, "[23]": {"target": "GalNAc3S(b1-4)[Fuc(a1-3)]GlcNAc", "method_in_brief": "as §1"}, "[24]": {"target": "GalNAc4S6S(b1-4)GlcNAc", "method_in_brief": "as §1"}, "[25]": {"target": "GalNAc6S(b1-4)GlcNAc", "method_in_brief": "as §1"}, "[26]": {"target": "Glc(a1-4)Glc", "method_in_brief": "as §1"}, "[27]": {"target": "Glc(a1-4)Glc(a1-4)Glc(a1-4)Glc", "method_in_brief": "as §1"}, "[28]": {"target": "Glc(a1-6)Glc(a1-6)Glc", "method_in_brief": "as §1"}, "[29]": {"target": "Glc(a1-6)Glc(a1-6)Glc(a1-6)Glc", "method_in_brief": "as §1"}, "[30]": {"target": "Glc(b1-4)Glc", "method_in_brief": "as §1"}, "[31]": {"target": "Glc(b1-6)Glc", "method_in_brief": "as §1"}, "[32]": {"target": "GlcA(b1-3)Gal", "method_in_brief": "as §1"}, "[33]": {"target": "GlcA(b1-3)GlcNAc", "method_in_brief": "as §1"}, "[34]": {"target": "GlcA(b1-6)Gal", "method_in_brief": "as §1"}, "[35]": {"target": "GlcA3S(b1-3)Gal(b1-4)GlcNAc(b1-2)Man", "method_in_brief": "as §1"}, "[36]": {"target": "GlcA3S(b1-3)Gal(b1-4)GlcNAc(b1-3)Gal(b1-4)Glc", "method_in_brief": "as §1"}, "[37]": {"target": "GlcNAc(a1-3)Gal(b1-4)GlcNAc", "method_in_brief": "as §1"}},
  "note": "This is one part of the list.",
  "data": [
    {"binder": "ArathEULS3 TAP (Arabidopsis thaliana) (protein) IDENLYFQGGSMDEKTTGWRGGHVVEGLAGELEQLRARLEHHPQGQREPGGGGSLEITSLYKKAGFMEHHHQHHRHHQRDDGEDDRQSFGVPPPHVDAPPQPHGLYQSQPHFDPYAPTPQAPAPYRSETQFEPHAPPPYRSEPYFETPAPPPSFGHVSHVGHQSPNESYPPEHHRYGGYQQPSNSLLESHGDHSGVTHVAHHSSNQPQSSSGVYHKPDENRLPDNLAGLAGRATVKVYSKAEPNYNLTIRDGKVILAPADPSDEAQHWYKDEKYSTKVKDADGHPCFALVNKATGEAMKHSVGATHPVHLIRYVPDKLDESVLWTESKDFGDGYRTIRMVNNTRLNVDAYHGDSKSGGVRDGTTIVLWDWNKGDNQLWKIFPF", "values": [
      {"measurement": "glycan array binding signal (z-score)", "setting": "[1]", "result": 1.58},
      {"measurement": "glycan array binding signal (z-score)", "setting": "[2]", "result": 0.324},
      {"measurement": "glycan array binding signal (z-score)", "setting": "[3]", "result": 1.4},
      {"measurement": "glycan array binding signal (z-score)", "setting": "[4]", "result": -0.237},
      {"measurement": "glycan array binding signal (z-score)", "setting": "[5]", "result": 0.515},
      {"measurement": "glycan array binding signal (z-score)", "setting": "[6]", "result": 0.997},
      {"measurement": "glycan array binding signal (z-score)", "setting": "[7]", "result": 1.86},
      {"measurement": "glycan array binding signal (z-score)", "setting": "[8]", "result": 0.771},
      {"measurement": "glycan array binding signal (z-score)", "setting": "[9]", "result": 1.33},
      {"measurement": "glycan array binding signal (z-score)", "setting": "[10]", "result": 0.972},
      {"measurement": "glycan array binding signal (z-score)", "setting": "[11]", "result": -0.875},
      {"measurement": "glycan array binding signal (z-score)", "setting": "[12]", "result": -0.701},
      {"measurement": "glycan array binding signal (z-score)", "setting": "[13]", "result": -0.83},
      {"measurement": "glycan array binding signal (z-score)", "setting": "[14]", "result": -0.58},
      {"measurement": "glycan array binding signal (z-score)", "setting": "[15]", "result": 0.431},
      {"measurement": "glycan array binding signal (z-score)", "setting": "[16]", "result": -1.75},
      {"measurement": "glycan array binding signal (z-score)", "setting": "[17]", "result": 0.543},
      {"measurement": "glycan array binding signal (z-score)", "setting": "[18]", "result": 0.218},
      {"measurement": "glycan array binding signal (z-score)", "setting": "[19]", "result": 1.07},
      {"measurement": "glycan array binding signal (z-score)", "setting": "[20]", "result": 0.37},
      {"measurement": "glycan array binding signal (z-score)", "setting": "[21]", "result": -0.134},
      {"measurement": "glycan array binding signal (z-score)", "setting": "[22]", "result": -0.609},
      {"measurement": "glycan array binding signal (z-score)", "setting": "[23]", "result": -1.44},
      {"measurement": "glycan array binding signal (z-score)", "setting": "[24]", "result": -1.01},
      {"measurement": "glycan array binding signal (z-score)", "setting": "[25]", "result": 0.057},
      {"measurement": "glycan array binding signal (z-score)", "setting": "[26]", "result": -0.491},
      {"measurement": "glycan array binding signal (z-score)", "setting": "[27]", "result": -0.904},
      {"measurement": "glycan array binding signal (z-score)", "setting": "[28]", "result": -0.209},
      {"measurement": "glycan array binding signal (z-score)", "setting": "[29]", "result": 1.67},
      {"measurement": "glycan array binding signal (z-score)", "setting": "[30]", "result": 0.113},
      {"measurement": "glycan array binding signal (z-score)", "setting": "[31]", "result": -1.73},
      {"measurement": "glycan array binding signal (z-score)", "setting": "[32]", "result": -0.233},
      {"measurement": "glycan array binding signal (z-score)", "setting": "[33]", "result": -0.1},
      {"measurement": "glycan array binding signal (z-score)", "setting": "[34]", "result": 1.39},
      {"measurement": "glycan array binding signal (z-score)", "setting": "[35]", "result": -1},
      {"measurement": "glycan array binding signal (z-score)", "setting": "[36]", "result": -1.9},
      {"measurement": "glycan array binding signal (z-score)", "setting": "[37]", "result": -1.28}
    ]}
  ]
}
